Among all 300,000 compounds or so, about 3,700 (1.2%) were called active. The shares of active, inactive and inconclusive entries below differ from those in the screen. Calls follow the shape of the full dose curve; tested in HEK293 cells. Potencies of inconclusive entries are doubtful fits and often do not repeat.
Experiment: qHTS for Inhibitors of binding or entry into cells for Lassa Virus; also: nearly all actives have a fitted effect of over 50% in size
Details: Lassa virus pseudotype entry inhibition, cell reporter; series mostly up to 37.9 µM
Potency is read from the fitted curve at half-maximal effect.

Row | Compound | Potency
1 | O=C(N[C@@H](Cc1ccccc1)C(=O)NC1CCCCC1)c1ccco1 | inactive
2 | O=C(Cc1cccs1)Nc1ccccn1 | inconclusive: 1 µM [inhibitor, single point]
3 | CNC(=O)/C(C#N)=C/c1c(N2CCN(c3ccc(OC)cc3)CC2)nc2c(C)cccn2c1=O | inconclusive: 25.1 µM [inhibitor, single point]
4 | COc1ccc(OCC(=O)Nc2ccc(Cl)cc2C(=O)c2ccccc2)cc1 | inconclusive: 14.6 µM [inhibitor, partial curve, poor fit]
5 | N/C(=N\OC(=O)c1ccco1)c1cccc([N+](=O)[O-])c1 | inactive
6 | COC(OC)c1ccnc(-c2ccc(OC(=O)c3ccc(F)cc3)cc2)n1 | inactive
7 | COc1ccccc1NS(=O)(=O)c1cc(NC(=O)Nc2cccc(C)c2)ccc1N1CCCCC1 | inactive
8 | Cc1cccc(C(=O)OCC(=O)N2CC(=O)Nc3ccccc32)c1C | inconclusive: 35.5 µM [inhibitor, single point]
9 | O=C(CSCc1ccccc1)N=Nc1c(O)[nH]c2ccccc12 | inconclusive: 12.6 µM [inhibitor, partial curve, poor fit]
10 | COCCN(C(=O)COC(=O)C1CCC(C(C)(C)C)CC1)c1c(N)n(Cc2ccccc2)c(=O)[nH]c1=O (stereo not drawn) | inconclusive: 1.78 µM [inhibitor, partial curve, poor fit]
11 | Cc1ccc2[nH]c(O)c(N=NC(=O)C3CC3c3ccccc3)c2c1Br (stereo not drawn) | inconclusive: 5.01 µM [inhibitor, partial curve]
12 | COc1ccc(N2CCN(C(=O)c3ccccc3NS(=O)(=O)c3ccc(C)cc3)CC2)cc1 | inconclusive: 17.8 µM [inhibitor, single point]
13 | CC(=O)N=c1n(C)c2ccccc2n1CCOc1ccccc1 | inconclusive: 35.5 µM [activator, partial curve, poor fit]
14 | CC1=C(C(=O)OCC(C)C)C(c2ccsc2)C2=C(CCCC2=O)N1 (stereo not drawn) | inactive
15 | COc1cc(/C=C2\SC(=S)N(CC(=O)O)C2=O)ccc1OS(=O)(=O)c1ccc(C)cc1 | inconclusive: 5.62 µM [inhibitor, single point]
16 | COc1ccc2cc(CNCCOCCOCCNCc3ccc4cc(OC)ccc4c3)ccc2c1 | inconclusive: 12.6 µM [inhibitor, partial curve, poor fit]
17 | c1cncc(CNc2nc(-c3cccnc3)nc3ccccc23)c1 | inconclusive: 3.55 µM [activator, single point]
18 | Cn1c(=O)c2c(nc(SCC(=O)O)n2Cc2cc3c(cc2Cl)OCO3)n(C)c1=O | inconclusive: 14.6 µM [activator, partial curve, poor fit]

A different layout for some results above.
Row	Compound	Potency
11	Cc1ccc2[nH]c(O)c(N=NC(=O)C3CC3c3ccccc3)c2c1Br (stereo not drawn)	inconclusive: 5.01 µM [inhibitor, partial curve]
12	COc1ccc(N2CCN(C(=O)c3ccccc3NS(=O)(=O)c3ccc(C)cc3)CC2)cc1	inconclusive: 17.8 µM [inhibitor, single point]

From PubChem BioAssay AID540256 (National Center for Advancing Translational Sciences (NCATS), 2011)
